Here are results for two molecules from publication PMC5808757.

The target in assay [1] is T1, His-tagged wildtype DR3 (death receptor 3) (human) (UniProt Q93038).
T1 sequence: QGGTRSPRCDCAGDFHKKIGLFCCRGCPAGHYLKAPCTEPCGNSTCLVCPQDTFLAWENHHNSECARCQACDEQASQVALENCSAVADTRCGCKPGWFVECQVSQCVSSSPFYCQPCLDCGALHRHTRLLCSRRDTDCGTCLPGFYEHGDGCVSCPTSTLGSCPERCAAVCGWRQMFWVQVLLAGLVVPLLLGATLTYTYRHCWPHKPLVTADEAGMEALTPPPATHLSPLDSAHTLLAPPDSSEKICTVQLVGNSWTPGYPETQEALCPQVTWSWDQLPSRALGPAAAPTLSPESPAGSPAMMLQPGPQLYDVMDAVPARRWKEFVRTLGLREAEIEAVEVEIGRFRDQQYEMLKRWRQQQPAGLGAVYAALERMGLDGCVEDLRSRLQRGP
Briefly: co-IP; lysates of transiently transfected 293T cells; immunoprecipitated with anti-His monoclonal antibody, blotted with anti-His and anti-GFP.

The target in assay [2] is T1, His-tagged wildtype DR3 (death receptor 3) (human). Briefly: co-IP; 293T cells transfected with His-DR3 and FLAG-TRADD, without or with increasing amounts of EGFP-Var DR3-D159G (0.1 and 0.2 μg); immunoprecipitation and Western blotting. (In general: A western blot detects proteins with antibodies after separation by electrophoresis.)

Residue numbers refer to the chain shown, from its start. Numbers in names are those of the source. No constants are given. Whether binding was seen depends on the method and setting. Binding seen in cells or lysates may run through a third protein. Some entries that bind do so weakly or less than the wild type. Where a sequence is shown, tags or fusion partners need not be part of it.

B1: EGFP-DR3D159G (wildtype DR3 with a D159G substitution, i.e. polymorphism a) (receptor, UniProt Q93038 25-417)
chain: T1 sequence with D135G
Consider B1, for which, in assay [1], the binding entry is recorded as “binds”.

B2: FLAG-tagged TRADD (TNFR-associated death domain protein) (protein, UniProt Q15628 1-312)
chain: MAAGQNGHEEWVGSAYLFVESSLDKVVLSDAYAHPQQKVAVYRALQAALAESGGSPDVLQMLKIHRSDPQLIVQLRFCGRQPCGRFLRAYREGALRAALQRSLAAALAQHSVPLQLELRAGAERLDALLADEERCLSCILAQQPDRLRDEELAELEDALRNLKCGSGARGGDGEVASAPLQPPVPSLSEVKPPPPPPPAQTFLFQGQPVVNRPLSLKDQQTFARSVGLKWRKVGRSLQRGCRALRDPALDSLAYEYEREGLYEQAFQLLRRFVQAEGRRATLQRLVEALEENELTSLAEDLLGLTDPNGGLA
For the molecule B2, the binding result in assay [2] was “binds”.
